Assay results from publication doi:10.1101/2024.10.07.617013.
These are yes or no findings as the source states them, for the method shown. Some results given as binding are weak or reduced against the parent protein; the word gives no strength.

Target: Non-POU domain-containing octamer-binding protein (NONO) from Cricetulus griseus (Cricetulus griseus)
Assay: cryo-EM structure

Substance: Non-POU domain-containing octamer-binding protein (NONO) from Cricetulus griseus (from UniProt A0A9J7K1U4 1-472)
- binding: binds
